Some entries share one result that the patent states for a list of compounds.
Test system: Pyrenophora teres
Assay: Barley net blotch control test, foliar spray on barley (Test Examples 3, 9)
Type: in vivo
Settings: Test Example 3, 500 ppm, barley (Mikamo Golden), inoculated 2 days after application

CON=C(C)c1ccc(OCc2c(C)cccc2-n2nnn(C)c2=O)c(Cl)c1 [Compound 8, 1-{2-[2-chloro-4-(1-methoxyimino-ethyl)-phenoxymethyl]-3-methyl-phenyl}-4-methyl-1,4-dihydrotetrazol-5-one]
infected area of the treated plant relative to that of the untreated plant: ≤ 30%

CCON=C(C)c1ccc(OCc2c(C)cccc2-n2nnn(C)c2=O)c(Cl)c1 [Compound 9, 1-{2-[2-chloro-4-(1-ethoxyimino-ethyl)-phenoxymethyl]-3-methyl-phenyl}-4-methyl-1,4-dihydrotetrazol-5-one]
infected area of the treated plant relative to that of the untreated plant: ≤ 30%

CON=C(C)c1ccc(OCc2c(C)cccc2-n2nnn(C)c2=O)c(OC)c1 [Compound 14, 1-{2-[2-methoxy-4-(1-methoxyimino-ethyl)-phenoxymethyl]-3-methyl-phenyl}-4-methyl-1,4-dihydrotetrazol-5-one]
infected area of the treated plant relative to that of the untreated plant: ≤ 30%

CON=C(C)c1ccc(OCc2c(C)cccc2-n2nnn(C)c2=O)c([N+](=O)[O-])c1 [Compound 15, 1-{2-[2-nitro-4-(1-methoxyimino-ethyl)-phenoxymethyl]-3-methyl-phenyl}-4-methyl-1,4-dihydrotetrazol-5-one]
infected area of the treated plant relative to that of the untreated plant: ≤ 30%

CON=C(C)c1cc(C)c(OCc2c(C)cccc2-n2nnn(C)c2=O)c(C)c1 [Compound 16, 1-{2-[2,6-dimethyl-4-(1-methoxyimino-ethyl)-phenoxymethyl]-3-methyl-phenyl}-4-methyl-1,4-dihydrotetrazol-5-one]
infected area of the treated plant relative to that of the untreated plant: ≤ 30%

CC(=NOCc1ccccc1)c1ccc(OCc2c(C)cccc2-n2nnn(C)c2=O)c(C)c1 [Compound 18, 1-{2-[2-methyl-4-1-(1-benzyloxyimino-ethyl)-phenoxymethyl]-3-methyl-phenyl}-4-methyl-1,4-dihydrotetrazol-5-one]
infected area of the treated plant relative to that of the untreated plant: ≤ 30%

CON=Cc1ccc(OCc2c(C)cccc2-n2nnn(C)c2=O)c(C)c1 [Compound 19, 1-{2-[2-methyl-4-1-(1-methoxyimino-ethyl)-phenoxymethyl]-3-methyl-phenyl}-4-methyl-1,4-dihydrotetrazol-5-one]
infected area of the treated plant relative to that of the untreated plant: ≤ 30%

CON=C(C)c1ccc(OCc2c(C)cccc2-n2nnn(C)c2=O)c(Br)c1 [Compound 20, 1-{2-[2-bromo-4-(1-methoxyimino-ethyl)-phenoxymethyl]-3-methyl-phenyl}-4-methyl-1,4-dihydrotetrazol-5-one]
infected area of the treated plant relative to that of the untreated plant: ≤ 30%

CON=Cc1ccc(OCc2c(OC)cccc2-n2nnn(C)c2=O)c(C)c1 [Compound 21, 1-{2-[2-methyl-4-(1-methoxyimino-methyl)-phenoxymethyl]-3-methoxy-phenyl}-4-methyl-1,4-dihydrotetrazol-5-one]
infected area of the treated plant relative to that of the untreated plant: ≤ 30%

CON=C(C)c1ccc(OCc2c(C)cccc2-n2nnn(C)c2=O)c(C(F)(F)F)c1 [Compound 23, 1-{2-[2-trifluoromethyl-4-(1-methoxyimino-ethyl)-phenoxymethyl]-3-methyl-phenyl}-4-methyl-1,4-dihydrotetrazol-5-one]
infected area of the treated plant relative to that of the untreated plant: ≤ 30%

COc1cccc(-n2nnn(C)c2=O)c1COc1ccc(C(C)=NOCc2ccccc2)cc1C [Compound 24, 1-{2-[2-methyl-4-(1-benzyloxyimino-ethyl)-phenoxymethyl]-3-methoxy-phenyl}-4-methyl-1,4-dihydrotetrazol-5-one]
infected area of the treated plant relative to that of the untreated plant: ≤ 30%

CON=C(C)c1ccc(OCc2c(OC)cccc2-n2nnn(C)c2=O)c([N+](=O)[O-])c1 [Compound 25, 1-{2-[2-nitro-4-(1-methoxyimino-ethyl)-phenoxymethyl]-3-methoxy-phenyl}-4-methyl-1,4-dihydrotetrazol-5-one]
infected area of the treated plant relative to that of the untreated plant: ≤ 30%

CON=C(C)c1ccc(OCc2c(OC)cccc2-n2nnn(C)c2=O)c(C(F)(F)F)c1 [Compound 26, 1-{2-[2-trifluoromethyl-4-(1-methoxyimino-ethyl)-phenoxymethyl]-3-methoxy-phenyl}-4-methyl-1,4-dihydrotetrazol-5-one]
infected area of the treated plant relative to that of the untreated plant: ≤ 30%

CON=C(C)c1ccc(OCc2c(OC)cccc2-n2nnn(C)c2=O)c(Br)c1 [Compound 27, 1-{2-[2-bromo-4-(1-methoxyimino-ethyl)-phenoxymethyl]-3-methoxy-phenyl}-4-methyl-1,4-dihydrotetrazol-5-one]
infected area of the treated plant relative to that of the untreated plant: ≤ 30%

CCCCON=C(C)c1ccc(OCc2c(C)cccc2-n2nnn(C)c2=O)c(C)c1 [Compound 28, 1-{2-[2-methyl-4-(1-butoxyimino-ethyl)-phenoxymethyl]-3-methyl-phenyl}-4-methyl-1,4-dihydrotetrazol-5-one]
infected area of the treated plant relative to that of the untreated plant: ≤ 30%

CCCCON=C(C)c1ccc(OCc2c(OC)cccc2-n2nnn(C)c2=O)c(C)c1 [Compound 29, 1-{2-[2-methyl-4-(1-butoxyimino-ethyl)-phenoxymethyl]-3-methoxy-phenyl}-4-methyl-1,4-dihydrotetrazol-5-one]
infected area of the treated plant relative to that of the untreated plant: ≤ 30%

C#CCON=C(C)c1ccc(OCc2c(OC)cccc2-n2nnn(C)c2=O)c(C)c1 [Compound 31, 1-{2-[2-methyl-4-(1-propargyloxyimino-ethyl)-phenoxymethyl]-3-methoxy-phenyl}-4-methyl-1,4-dihydrotetrazol-5-one]
infected area of the treated plant relative to that of the untreated plant: ≤ 30%

CON=C(C)c1ccc(OCc2c(C3CC3)cccc2-n2nnn(C)c2=O)c(OC)c1 [Compound 32, 1-{2-[2-methoxy-4-(1-methoxyimino-ethyl)-phenoxymethyl]-3-cyclopropyl-phenyl}-4-methyl-1,4-dihydrotetrazol-5-one]
infected area of the treated plant relative to that of the untreated plant: ≤ 30%

CON=C(C)c1ccc(OCc2c(C3CC3)cccc2-n2nnn(C)c2=O)c(C(F)(F)F)c1 [Compound 33, 1-{2-[2-trifluoro-4-(1-methoxyimino-ethyl)-phenoxymethyl]-3-cyclopropyl-phenyl}-4-methyl-1,4-dihydrotetrazol-5-one]
infected area of the treated plant relative to that of the untreated plant: ≤ 30%

CC(=NOC(C)(C)C)c1ccc(OCc2c(C3CC3)cccc2-n2nnn(C)c2=O)c(C)c1 [Compound 34, 1-{2-[2-methyl-4-{1-(tert-butoxy)imino-ethyl)-phenoxymethyl]-3-cyclopropyl-phenyl}-4-methyl-1,4-dihydrotetrazol-5-one]
infected area of the treated plant relative to that of the untreated plant: ≤ 30%

C#CCON=C(C)c1ccc(OCc2c(C3CC3)cccc2-n2nnn(C)c2=O)c(C)c1 [Compound 35, 1-{2-[2-methyl-4-{1-propargyloxyimino-ethyl)-phenoxymethyl]-3-cyclopropyl-phenyl}-4-methyl-1,4-dihydrotetrazol-5-one]
infected area of the treated plant relative to that of the untreated plant: ≤ 30%

CON=Cc1ccc(OCc2c(C3CC3)cccc2-n2nnn(C)c2=O)c(C)c1 [Compound 36, 1-{2-[2-methyl-4-(1-methoxyimino-methyl)-phenoxymethyl]-3-cyclopropyl-phenyl}-4-methyl-1,4-dihydrotetrazol-5-one]
infected area of the treated plant relative to that of the untreated plant: ≤ 30%

CON=C(C)c1ccc(OCc2c(C3CC3)cccc2-n2nnn(C)c2=O)c(F)c1 [Compound 37, 1-{2-[2-fluoro-4-(1-methoxyimino-ethyl)-phenoxymethyl]-3-cyclopropyl-phenyl}-4-methyl-1,4-dihydrotetrazol-5-one]
infected area of the treated plant relative to that of the untreated plant: ≤ 30%

CON=C(C)c1ccc(OCc2c(C)cccc2-n2nnn(C)c2=O)c(F)c1 [Compound 38, 1-{2-[2-fluoro-4-(1-methoxyimino-ethyl)-phenoxymethyl]-3-methyl-phenyl}-4-methyl-1,4-dihydrotetrazol-5-one]
infected area of the treated plant relative to that of the untreated plant: ≤ 30%

CON=C(C)c1ccc(OCc2c(OC)cccc2-n2nnn(C)c2=O)c(F)c1 [Compound 39, 1-{2-[2-fluoro-4-(1-methoxyimino-ethyl)-phenoxymethyl]-3-methoxy-phenyl}-4-methyl-1,4-dihydrotetrazol-5-one]
infected area of the treated plant relative to that of the untreated plant: ≤ 30%

CON=C(C)c1ccc(OCc2c(C)cccc2-n2nnn(C)c2=O)c(C2CC2)c1 [Compound 42, 1-{2-[2-cyclopropyl-4-(1-methoxyimino-ethyl)-phenoxymethyl]-3-methylphenyl}-4-methyl-1,4-dihydrotetrazol-5-one]
infected area of the treated plant relative to that of the untreated plant: ≤ 30%

CCOc1cccc(-n2nnn(C)c2=O)c1COc1ccc(C(C)=NOC)cc1C [Compound 44, 1-{2-[2-methyl-4-(1-methoxyimino-ethyl)phenoxymethyl]-3-ethoxy-phenyl}-4-methyl-1,4-dihydrotetrazol-5-one]
infected area of the treated plant relative to that of the untreated plant: ≤ 30%

CON=C(C)c1ccc(OCc2c(-n3nnn(C)c3=O)cccc2C(F)(F)F)c(C)c1 [Compound 45, 1-{2-[2-methyl-4-(1-methoxyimino-ethyl)phenoxymethyl]-3-tridluoromethyl-phenyl}-4-methyl-1,4-dihydrotetrazol-5-one]
infected area of the treated plant relative to that of the untreated plant: ≤ 30%

C=C(C)c1cccc(-n2nnn(C)c2=O)c1COc1ccc(C(C)=NOC)cc1C [Compound 46, 1-{2-[2-methyl-4-(1-methoxyimino-ethyl)-phenoxymethyl]-3-isopropenyl-phenyl}-4-methyl-1,4-dihydrotetrazol-5-one]
infected area of the treated plant relative to that of the untreated plant: ≤ 30%

CON=C(C)c1ccc(OCc2c(C(C)C)cccc2-n2nnn(C)c2=O)c(C)c1 [Compound 47, 1-{2-[2-methyl-4-(1-methoxyimino-ethyl)-phenoxymethyl]-3-isopropyl-phenyl}-4-methyl-1,4-dihydrotetrazol-5-one]
infected area of the treated plant relative to that of the untreated plant: ≤ 30%

CON=C(C)c1ccc(OCc2c(C)cccc2-n2nnn(C)c2=O)cc1C [Compound 49, 1-{2-[3-methyl-4-(1-methoxyimino-ethyl)-phenoxymethyl]-3-methyl-phenyl}-4-methyl-1,4-dihydrotetrazol-5-one]
infected area of the treated plant relative to that of the untreated plant: ≤ 30%
